The source of these data is the supplement of paper PMC6411743.

Sequences of proteins named here, by UniProt entry; tags and fusion partners are left off. A change or cut given only in a name is not applied to a line headed by its entry.
UniProt Q9H4L4: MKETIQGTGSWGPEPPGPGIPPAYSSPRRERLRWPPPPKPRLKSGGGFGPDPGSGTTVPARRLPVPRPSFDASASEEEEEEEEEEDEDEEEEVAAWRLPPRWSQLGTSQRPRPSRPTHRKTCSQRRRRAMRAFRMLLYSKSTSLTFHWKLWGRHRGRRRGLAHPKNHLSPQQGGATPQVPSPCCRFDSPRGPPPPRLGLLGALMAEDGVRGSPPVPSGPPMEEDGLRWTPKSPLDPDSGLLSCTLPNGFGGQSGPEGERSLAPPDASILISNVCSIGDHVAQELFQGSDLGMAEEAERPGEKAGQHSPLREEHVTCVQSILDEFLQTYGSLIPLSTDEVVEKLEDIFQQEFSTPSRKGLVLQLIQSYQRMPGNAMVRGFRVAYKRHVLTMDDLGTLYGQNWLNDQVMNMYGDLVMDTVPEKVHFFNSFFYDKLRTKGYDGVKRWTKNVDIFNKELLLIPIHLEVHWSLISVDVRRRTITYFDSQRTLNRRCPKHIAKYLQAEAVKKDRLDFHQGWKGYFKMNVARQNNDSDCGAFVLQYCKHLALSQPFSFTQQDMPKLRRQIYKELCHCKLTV
UniProt Q15468: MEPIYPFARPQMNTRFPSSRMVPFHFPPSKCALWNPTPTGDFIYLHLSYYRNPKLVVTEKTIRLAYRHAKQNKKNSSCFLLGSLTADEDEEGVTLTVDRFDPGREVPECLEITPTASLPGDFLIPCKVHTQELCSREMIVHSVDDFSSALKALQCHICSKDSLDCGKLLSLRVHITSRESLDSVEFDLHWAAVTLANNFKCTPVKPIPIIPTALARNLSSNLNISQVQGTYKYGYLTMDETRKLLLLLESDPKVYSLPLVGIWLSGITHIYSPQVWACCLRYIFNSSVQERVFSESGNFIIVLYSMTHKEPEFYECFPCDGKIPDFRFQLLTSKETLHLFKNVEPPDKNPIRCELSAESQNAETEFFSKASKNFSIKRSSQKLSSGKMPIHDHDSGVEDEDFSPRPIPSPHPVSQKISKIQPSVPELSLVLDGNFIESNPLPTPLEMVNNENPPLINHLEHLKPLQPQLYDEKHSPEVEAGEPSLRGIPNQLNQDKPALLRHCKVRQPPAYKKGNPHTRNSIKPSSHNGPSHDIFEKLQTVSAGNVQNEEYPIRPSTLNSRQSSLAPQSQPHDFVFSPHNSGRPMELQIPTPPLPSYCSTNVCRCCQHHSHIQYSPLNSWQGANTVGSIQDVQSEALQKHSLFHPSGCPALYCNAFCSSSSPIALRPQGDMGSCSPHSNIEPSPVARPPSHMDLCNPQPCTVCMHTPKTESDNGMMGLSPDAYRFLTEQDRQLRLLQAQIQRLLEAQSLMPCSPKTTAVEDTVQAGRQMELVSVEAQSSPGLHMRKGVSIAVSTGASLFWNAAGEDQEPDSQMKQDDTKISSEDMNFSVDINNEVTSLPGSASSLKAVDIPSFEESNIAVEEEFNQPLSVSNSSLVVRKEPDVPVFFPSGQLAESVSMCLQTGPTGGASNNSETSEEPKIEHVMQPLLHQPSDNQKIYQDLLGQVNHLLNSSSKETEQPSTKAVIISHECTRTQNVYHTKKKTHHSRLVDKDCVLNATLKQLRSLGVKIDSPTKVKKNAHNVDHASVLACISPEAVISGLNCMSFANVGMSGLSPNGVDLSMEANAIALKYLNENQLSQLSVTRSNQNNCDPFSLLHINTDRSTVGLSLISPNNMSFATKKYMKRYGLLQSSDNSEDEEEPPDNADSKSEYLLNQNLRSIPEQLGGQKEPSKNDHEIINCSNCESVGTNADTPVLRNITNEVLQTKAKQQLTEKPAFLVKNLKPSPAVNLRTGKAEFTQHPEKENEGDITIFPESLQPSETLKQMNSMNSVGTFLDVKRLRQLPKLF
UniProt Q8WXX7: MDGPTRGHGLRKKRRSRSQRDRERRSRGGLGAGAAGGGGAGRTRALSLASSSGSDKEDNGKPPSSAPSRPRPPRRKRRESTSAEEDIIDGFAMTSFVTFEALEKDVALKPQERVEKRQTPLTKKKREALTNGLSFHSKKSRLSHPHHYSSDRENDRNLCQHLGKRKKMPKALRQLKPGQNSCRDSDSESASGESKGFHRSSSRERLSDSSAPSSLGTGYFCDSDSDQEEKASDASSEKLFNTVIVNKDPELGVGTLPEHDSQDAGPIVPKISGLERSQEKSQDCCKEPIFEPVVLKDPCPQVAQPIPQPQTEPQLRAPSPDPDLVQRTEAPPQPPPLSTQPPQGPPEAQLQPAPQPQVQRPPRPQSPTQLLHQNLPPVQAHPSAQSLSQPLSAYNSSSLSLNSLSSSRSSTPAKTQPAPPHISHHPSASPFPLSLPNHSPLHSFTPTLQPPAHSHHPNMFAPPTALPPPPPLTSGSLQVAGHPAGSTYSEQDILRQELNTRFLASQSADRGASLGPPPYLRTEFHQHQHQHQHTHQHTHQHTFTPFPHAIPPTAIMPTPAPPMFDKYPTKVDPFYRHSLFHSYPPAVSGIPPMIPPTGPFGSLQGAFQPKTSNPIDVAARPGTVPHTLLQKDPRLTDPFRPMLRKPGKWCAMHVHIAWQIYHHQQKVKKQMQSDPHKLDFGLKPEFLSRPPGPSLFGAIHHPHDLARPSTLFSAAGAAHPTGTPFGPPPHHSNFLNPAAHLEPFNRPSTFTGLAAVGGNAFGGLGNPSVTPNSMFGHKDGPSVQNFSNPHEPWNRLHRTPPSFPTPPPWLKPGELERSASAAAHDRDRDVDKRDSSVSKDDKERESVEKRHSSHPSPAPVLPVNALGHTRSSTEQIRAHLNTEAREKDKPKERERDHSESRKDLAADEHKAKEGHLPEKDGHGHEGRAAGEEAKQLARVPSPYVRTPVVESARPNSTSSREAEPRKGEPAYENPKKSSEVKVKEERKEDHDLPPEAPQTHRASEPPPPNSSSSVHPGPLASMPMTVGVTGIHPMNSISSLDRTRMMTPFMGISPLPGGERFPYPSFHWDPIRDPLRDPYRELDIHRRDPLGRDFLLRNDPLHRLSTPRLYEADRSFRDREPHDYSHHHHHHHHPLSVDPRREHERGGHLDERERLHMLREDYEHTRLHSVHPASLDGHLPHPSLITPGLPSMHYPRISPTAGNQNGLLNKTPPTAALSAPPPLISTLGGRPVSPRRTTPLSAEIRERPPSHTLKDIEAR
UniProt Q96AP0: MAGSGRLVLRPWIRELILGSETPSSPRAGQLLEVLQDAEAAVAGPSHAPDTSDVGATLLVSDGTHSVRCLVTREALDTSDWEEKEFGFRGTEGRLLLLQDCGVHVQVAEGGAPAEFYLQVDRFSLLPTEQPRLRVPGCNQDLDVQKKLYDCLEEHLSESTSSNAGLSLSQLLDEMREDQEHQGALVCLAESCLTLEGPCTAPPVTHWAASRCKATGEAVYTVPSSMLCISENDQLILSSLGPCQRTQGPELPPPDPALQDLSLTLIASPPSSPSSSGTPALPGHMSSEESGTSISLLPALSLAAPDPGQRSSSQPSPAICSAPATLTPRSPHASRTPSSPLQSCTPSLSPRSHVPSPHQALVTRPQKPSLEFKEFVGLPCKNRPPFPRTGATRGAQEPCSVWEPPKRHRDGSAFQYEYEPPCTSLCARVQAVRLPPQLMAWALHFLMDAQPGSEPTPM
UniProt Q9BY42: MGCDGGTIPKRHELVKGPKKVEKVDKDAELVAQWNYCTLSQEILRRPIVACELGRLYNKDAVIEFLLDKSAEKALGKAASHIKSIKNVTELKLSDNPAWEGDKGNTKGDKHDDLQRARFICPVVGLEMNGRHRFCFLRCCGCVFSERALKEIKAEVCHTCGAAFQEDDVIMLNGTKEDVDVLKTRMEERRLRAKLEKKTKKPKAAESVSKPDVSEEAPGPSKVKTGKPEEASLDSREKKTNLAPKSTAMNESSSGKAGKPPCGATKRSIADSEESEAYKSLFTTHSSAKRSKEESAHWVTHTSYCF
UniProt Q9NP73: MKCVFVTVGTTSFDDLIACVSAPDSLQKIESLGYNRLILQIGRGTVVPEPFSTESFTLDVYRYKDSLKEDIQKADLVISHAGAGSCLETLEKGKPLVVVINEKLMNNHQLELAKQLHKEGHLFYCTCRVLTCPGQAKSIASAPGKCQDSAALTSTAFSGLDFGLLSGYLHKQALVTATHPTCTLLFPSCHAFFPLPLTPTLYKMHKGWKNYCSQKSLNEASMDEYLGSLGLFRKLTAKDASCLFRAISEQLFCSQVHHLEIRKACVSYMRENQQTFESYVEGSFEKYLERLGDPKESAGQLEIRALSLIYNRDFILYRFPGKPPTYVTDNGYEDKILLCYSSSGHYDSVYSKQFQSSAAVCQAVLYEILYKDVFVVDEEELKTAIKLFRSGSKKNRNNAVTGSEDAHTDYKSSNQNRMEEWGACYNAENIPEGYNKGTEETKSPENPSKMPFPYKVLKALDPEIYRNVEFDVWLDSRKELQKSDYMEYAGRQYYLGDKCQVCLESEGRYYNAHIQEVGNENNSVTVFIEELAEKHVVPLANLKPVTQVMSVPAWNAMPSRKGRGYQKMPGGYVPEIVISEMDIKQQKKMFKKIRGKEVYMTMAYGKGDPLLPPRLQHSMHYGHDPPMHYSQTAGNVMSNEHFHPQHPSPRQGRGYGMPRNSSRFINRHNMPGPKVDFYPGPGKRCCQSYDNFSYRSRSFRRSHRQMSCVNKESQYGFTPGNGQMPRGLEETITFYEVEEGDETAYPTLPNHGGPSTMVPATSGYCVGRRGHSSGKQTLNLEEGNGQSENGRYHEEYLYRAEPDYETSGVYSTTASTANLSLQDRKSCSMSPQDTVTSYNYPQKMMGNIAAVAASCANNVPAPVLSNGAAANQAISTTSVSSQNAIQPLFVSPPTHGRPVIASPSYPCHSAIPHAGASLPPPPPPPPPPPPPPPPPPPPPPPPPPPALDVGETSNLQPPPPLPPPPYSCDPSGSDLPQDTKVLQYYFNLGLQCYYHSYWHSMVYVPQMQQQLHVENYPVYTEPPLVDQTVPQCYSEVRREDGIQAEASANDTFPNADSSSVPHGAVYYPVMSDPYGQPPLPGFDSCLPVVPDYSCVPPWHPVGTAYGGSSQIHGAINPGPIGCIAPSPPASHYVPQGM
UniProt P46087: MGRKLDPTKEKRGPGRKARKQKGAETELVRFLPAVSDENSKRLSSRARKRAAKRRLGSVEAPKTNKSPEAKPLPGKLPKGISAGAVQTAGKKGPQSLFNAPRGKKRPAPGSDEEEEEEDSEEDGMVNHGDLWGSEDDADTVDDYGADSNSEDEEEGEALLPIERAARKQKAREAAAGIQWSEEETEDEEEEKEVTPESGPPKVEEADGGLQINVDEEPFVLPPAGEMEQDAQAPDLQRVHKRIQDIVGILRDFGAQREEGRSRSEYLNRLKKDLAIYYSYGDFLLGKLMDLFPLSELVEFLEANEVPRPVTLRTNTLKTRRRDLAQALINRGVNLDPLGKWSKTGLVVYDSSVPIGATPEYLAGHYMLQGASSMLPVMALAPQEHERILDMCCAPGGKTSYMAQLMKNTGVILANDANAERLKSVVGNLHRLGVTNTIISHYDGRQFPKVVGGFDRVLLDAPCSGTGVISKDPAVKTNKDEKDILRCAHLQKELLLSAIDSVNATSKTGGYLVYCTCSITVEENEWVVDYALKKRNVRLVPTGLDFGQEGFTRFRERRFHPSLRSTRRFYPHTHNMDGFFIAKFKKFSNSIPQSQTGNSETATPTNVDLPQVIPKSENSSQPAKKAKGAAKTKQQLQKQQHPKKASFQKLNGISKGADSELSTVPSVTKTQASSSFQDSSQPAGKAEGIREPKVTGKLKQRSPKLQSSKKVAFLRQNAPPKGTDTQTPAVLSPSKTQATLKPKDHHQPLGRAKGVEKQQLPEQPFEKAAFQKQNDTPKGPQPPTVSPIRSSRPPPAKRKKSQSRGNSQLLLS
UniProt O15318: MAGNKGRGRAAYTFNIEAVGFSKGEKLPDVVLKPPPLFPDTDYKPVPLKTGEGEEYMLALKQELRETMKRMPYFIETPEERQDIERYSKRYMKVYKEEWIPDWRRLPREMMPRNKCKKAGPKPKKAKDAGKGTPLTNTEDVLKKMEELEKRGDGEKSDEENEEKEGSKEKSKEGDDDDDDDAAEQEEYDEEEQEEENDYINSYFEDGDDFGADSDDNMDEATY
UniProt Q96CS7: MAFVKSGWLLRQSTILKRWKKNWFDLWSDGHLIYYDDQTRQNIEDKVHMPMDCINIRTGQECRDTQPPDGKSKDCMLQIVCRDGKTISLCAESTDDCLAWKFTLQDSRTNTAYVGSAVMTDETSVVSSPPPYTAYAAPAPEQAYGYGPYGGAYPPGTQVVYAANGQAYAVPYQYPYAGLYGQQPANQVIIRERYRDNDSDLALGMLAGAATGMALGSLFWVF

Compound in the assay: Nc1ncnc2c1ncn2[C@@H]1O[C@H](COP(=O)(O)OP(=O)(O)OP(=O)(O)O)[C@@H](O)[C@H]1O [adenosine triphosphate]
Briefly: NP40-soluble protein abundance relative to vehicle (solubility fold change) (ratio); higher = more soluble protein in presence of ATP. The procedure, abridged: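 Each value is a fold change relative to the detergent-processed vehicle, calculated per replicate from vsn-normalised intensities. Jurkat crude lysate received eight concentrations (0.1 to 10 mM) for 10 min at room temperature and 3 min at 37 °C, then was solubilised in 0.8% NP40 with benzonase (60 min, 4 °C). The ultracentrifuged supernatant was TMT-labelled and run by LC-MS/MS in three independent experiments.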

± gives the standard deviation of the averaged measurements. Only a part is listed here, and it is no random draw. Most entries show no effect beyond the scatter of the controls.

Take “A0A087WY58|P51956 and related entries (UniProt P51956)”: the NP40-soluble protein abundance (concentration: 0.1mM) was 0.998 ± 0.028 and the NP40-soluble protein abundance (concentration: 0.5mM) was 0.9832 ± 0.0068.
For A0A087X0R7|Q9H4L4 (UniProt Q9H4L4), in that order: 1.03 ± 0.13 and 0.956 ± 0.087.
“A0A0A0MR87|E9PSF2 and related entries (UniProt Q15468)”: the NP40-soluble protein abundance runs as follows: (concentration: 0.1mM) 0.847 ± 0.098; (concentration: 0.5mM) 0.79 ± 0.1.
Turning to A0A0A0MQS2|F5H0Q6 (UniProt Q8N2M8), the NP40-soluble protein abundance was 0.997 ± 0.12 (concentration: 0.1mM) and 1.08 ± 0.15 (concentration: 0.5mM).
With “A0A087WVB5|Q75MD7 and related entries (UniProt Q8WXX7)”, the NP40-soluble protein abundance runs as follows: (concentration: 0.1mM) 0.888 ± 0.048; (concentration: 0.5mM) 0.903 ± 0.03.
Regarding “A0A0D9SF53|A0A0D9SFB3|A0A0D9SG12|O00571 (UniProt O00571)”, the NP40-soluble protein abundance runs as follows: (concentration: 0.1mM) 1.07 ± 0.039; (concentration: 0.5mM) 1.11 ± 0.05.
For “A0A0C4DGT6|Q96AP0 and related entries (UniProt Q96AP0)”, the NP40-soluble protein abundance is, setting by setting: (concentration: 0.1mM) 1.02 ± 0.13; (concentration: 0.5mM) 1.06 ± 0.093.
For A0A0A0MQR2|Q9BY42 (UniProt Q9BY42), in that order: 0.969 ± 0.018 and 1 ± 0.025.
In the same order, the values of “A0A096LP10|Q9NP73-2|A0A087WTT9|A0A087WX43|A0A096LNJ4|D6RE84 and related entries (UniProt Q9NP73)” are 1.13 ± 0.15 and 0.994 ± 0.041.
“A0A087WV73|P46087 and related entries (UniProt P46087)”: the NP40-soluble protein abundance reads like this: (concentration: 0.1mM) 1.02 ± 0.005; (concentration: 0.5mM) 1.1 ± 0.025.
For “A0A087WTV7|D6R9U7 and related entries (UniProt O15318)”, in that order: 0.901 ± 0.031 and 0.967 ± 0.07.
For “A0A0A0MSE9|B7WPA5 and related entries (UniProt Q96CS7)”, in that order: 1.13 ± 0.035 and 1.13 ± 0.16.
In the same order, the values of A0A087X211|Q8TCG1 (UniProt Q8TCG1) are 1.02 ± 0.058 and 0.985 ± 0.036.
On to “A0A087X159|P81877 and related entries (UniProt P81877)”, for which the NP40-soluble protein abundance by setting is: (concentration: 0.1mM) 1.03 ± 0.083; (concentration: 0.5mM) 0.941 ± 0.055.
